Results taken from the supplement of paper PMC7125110.
± gives the standard error. Many of these values have a large error.

B1: glmS ribozyme (parent)
chain: AUAAAAGCGCCAGAACUACAGAAAUGUAGUUGACGAGGAGGAGGUUUAUCGAAUUUUCGGCGGAUGCCUCCAAA

Variants of: B1
Assay: kcat; higher = faster cleavage; RNA array
Details: with glucosamine-6-phosphate
In short: (§1)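 A hybridised Cy3 probe tracked barcoded ribozyme variants, transcribed in situ by E. coli RNA polymerase on sequenced MiSeq chips, at 37 °C. The variants received 40 μM to 10 mM glucosamine-6-phosphate in HEPES/KCl/Mg(OAc)2 buffer. kobs came from decay fits and kcat and KM from weighted Michaelis–Menten fits.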

Row | Variant | kcat
1 | AUAAAAGCGCCAGAAUUACAGAAAUGUAGUUGACGAGGAGGAGGUUUAUCGAUUUUUCGGCGGAUGCCUCCAAA [C16U A53U] | 0.0128 ± 0.011 s⁻¹
2 | AUAAAAGCGCCAGAAUUACAGAAAUGUAGUUGACGAGGAGGAGGUUUAUCGACUUUUCGGCGGAUGCCUCCAAA [C16U A53C] | 0.00916 ± 0.0052 s⁻¹
3 | AUAAAAGCGCCAGAACUACAGAAAUGUACUUGACGAGGAGGAGGUUUAUGGAAUUUUCGGCGGAUGCCUCCAAA [G29C C50G] | 5.29e-05 ± 3.5e-05 s⁻¹
4 | AUAAAAGCGCCAGAGCUACAGAAAUGUAGUUGACGAGGAUGAGGUUUAUCGAAUUUUCGGCGGAUGCCUACAAA [A15G G40U C70A] | 0.000787 ± 0.00041 s⁻¹
5 | AUAAAAGCGCCAGAAUUACAGAAAUGUACUUGACGAGGAGGAGGUUUAUCGAAUUUUCGGCGGAUGCCUCCAAA [C16U G29C] | 0.00862 ± 0.0062 s⁻¹
6 | AUAAAAGCGCCAGAACUACAGAAAUGUACUCGACGAGGAGGAGGUUUAUCGAAUUUUCGGCGGAUGCCUACAAA [G29C U31C C70A] | 5.35e-05 ± 4.1e-05 s⁻¹
7 | AUAAAAGCGCCAGAACUACAGAAAUGUACUUGACGAGGAGGAGGAUUAUCGAAUUUUCGGCGGAUGCCUCCAAA [G29C U45A] | 0.000965 ± 0.0006 s⁻¹
8 | AUAAAAGCGCCAGAAGUACAGAAAUGUACUUGACGAGGAGGAGGUUUAUCGAAUUUUCGGCGGAUGCCUCCAAA [C16G G29C] | 0.0089 ± 0.0065 s⁻¹
9 | AUAAAAGCGCCAGAAGUACAGAAAUGUAUUUGACGAGGAGGAGGUUUAUCGAAUUUUCGGCGGAUGCCUCCAAA [C16G G29U] | 0.0203 ± 0.018 s⁻¹
10 | AUAAAAGCGCCAGAACUACAGAAAUGUAAUUGACGAUGAGGAGGUUUAUCGAAUUUUCGGCGGAUGCCUCCAAA [G29A G37U] | < 1e-05 s⁻¹
11 | AUAAAAGCGCCAGAGCUACAGAAAUGUAGUCGACGAGGAGGAGGUUUAUCGAAUUUUCGGCGGAUGCCUCCAAA [A15G U31C] | 0.0189 ± 0.012 s⁻¹
12 | AUAAAAGCGCCAGAACUACAGAAAUGUACUUGACGAGGAGGAGGUUUAUCGAGUUUUCGGCGGAUGCAUCCAAA [G29C A53G C68A] | 6.29e-05 ± 4.1e-05 s⁻¹
13 | AUAAAAGCGCCAGAACUACAGAAAUGUAUUUAACGAGGAGGAGGUUUAUCGAAUUUUCGGCGGAUGCCUCCAAA [G29U G32A] | 0.00151 ± 0.00013 s⁻¹
14 | AUAAAAGCGCCAGAACUACAGAAAUGUAUUUGACGAGGAGGAGGUUUAUCGACUUUUCGGCGGAUGCCUCCAAA [G29U A53C] | 0.0016 ± 0.0014 s⁻¹
15 | AUAAAAGCGCCAGAGCUACAGAAAUGUAGUUGACGAGGAGGAGGUUUAGCGAAUUUUCGGCGGAUGCCUCCAAA [A15G U49G] | 0.00183 ± 0.00093 s⁻¹
16 | AUAAAAGCGCCAGAACUACAGAAAUGUAAUUGACGAGGAGGAGGUUUAUGGAAUUUUCGGCGGAUGCCUCCAAA [G29A C50G] | 3.63e-05 ± 2.4e-05 s⁻¹
17 | AUAAAAGCGCCAGAACUACAGAAAUGUACGUGACGAGGAGGAGGUUUAUCGAAUUUUCGGCGGAUGCCUCCAAA [G29C U30G] | 0.00361 ± 0.0014 s⁻¹
18 | AUAAAAGCGCCAGAAGUACAGAAAUGUAGUUGACGAGGAGGAGGUUUAUAGAAUUUUCGGCGGAUGCCUACAAA [C16G C50A C70A] | 4.39e-05 ± 2.5e-05 s⁻¹
19 | AUAAAAGCGCCAGAACUACAUAAAUGUAGUUGACGAGGAGGAGGCUUAUCGAAUUUUCGGCGGAUGCUUCCAAA [G21U U45C C68U] | 0.000502 ± 0.00032 s⁻¹
20 | AUAAAAGCGCCAGAAUUACAGAAAUGUAGUUGACGAGGAAGAGGUUUAUCGAAUUUUCGGCGGAUGCCUCCAAA [C16U G40A] | 0.00615 ± 0.0033 s⁻¹
21 | AUAAAAGCGCCAGAAAUACAGAAAUGUAGUUGACGAGGAGGAGGUUUACCGAAUUUUCUGCGGAUGCCACCAAA [C16A U49C G59U U69A] | < 1e-05 s⁻¹
22 | AUAAAAGCGCCAGAACUACAGAAAUGUAAUUGACGAGGAGGAGGUUUAUCGAACUUUCGGCGGAUGCCUCCAAA [G29A U54C] | 0.00174 ± 0.0011 s⁻¹

Variants of: B1
Assay: KM; higher = weaker cofactor use; RNA array
Details: with glucosamine-6-phosphate
In short: as §1

Row | Variant | KM
23 | AUAAAAGCGCCAGAAUUACAGAAAUGUAGUUGACGAGGAGGAGGUUUAUCGACUUUUCGGCGGAUGCCUCCAAA [C16U A53C] | 3560 ± 2600 µM
24 | AUAAAAGCGCCAGAGCUACAGAAAUGUAGUUGACGAGGAUGAGGUUUAUCGAAUUUUCGGCGGAUGCCUACAAA [A15G G40U C70A] | 1990 ± 1600 µM
25 | AUAAAAGCGCCAGAAUUACAGAAAUGUACUUGACGAGGAGGAGGUUUAUCGAAUUUUCGGCGGAUGCCUCCAAA [C16U G29C] | 1670 ± 1600 µM
26 | AUAAAAGCGCCAGAAGUACAGAAAUGUACUUGACGAGGAGGAGGUUUAUCGAAUUUUCGGCGGAUGCCUCCAAA [C16G G29C] | 568 ± 540 µM
27 | AUAAAAGCGCCAGAGCUACAGAAAUGUAGUCGACGAGGAGGAGGUUUAUCGAAUUUUCGGCGGAUGCCUCCAAA [A15G U31C] | 5670 ± 4100 µM
28 | AUAAAAGCGCCAGAACUACAGAAAUGUAUUUAACGAGGAGGAGGUUUAUCGAAUUUUCGGCGGAUGCCUCCAAA [G29U G32A] | 2210 ± 350 µM
29 | AUAAAAGCGCCAGAGCUACAGAAAUGUAGUUGACGAGGAGGAGGUUUAGCGAAUUUUCGGCGGAUGCCUCCAAA [A15G U49G] | 4540 ± 3400 µM
30 | AUAAAAGCGCCAGAACUACAGAAAUGUACGUGACGAGGAGGAGGUUUAUCGAAUUUUCGGCGGAUGCCUCCAAA [G29C U30G] | 1710 ± 940 µM
31 | AUAAAAGCGCCAGAAUUACAGAAAUGUAGUUGACGAGGAAGAGGUUUAUCGAAUUUUCGGCGGAUGCCUCCAAA [C16U G40A] | 1880 ± 1300 µM
32 | AUAAAAGCGCCAGAACUACAGAAAUGUAAUUGACGAGGAGGAGGUUUAUCGAACUUUCGGCGGAUGCCUCCAAA [G29A U54C] | 692 ± 590 µM

Single values from above:
AUAAAAGCGCCAGAACUACAGAAAUGUAAUUGACGAGGAGGAGGUUUAUCGAACUUUCGGCGGAUGCCUCCAAA [G29A U54C] – KM: 692 ± 590 µM
AUAAAAGCGCCAGAGCUACAGAAAUGUAGUCGACGAGGAGGAGGUUUAUCGAAUUUUCGGCGGAUGCCUCCAAA [A15G U31C] – KM: 5670 ± 4100 µM
AUAAAAGCGCCAGAAGUACAGAAAUGUACUUGACGAGGAGGAGGUUUAUCGAAUUUUCGGCGGAUGCCUCCAAA [C16G G29C] – KM: 568 ± 540 µM

Variants of: B1
Assay: self-cleavage kobs at 160 uM GlcN6P; higher = faster cleavage; RNA array
Details: with glucosamine-6-phosphate
In short: as §1

Row | Variant | self-cleavage kobs at 160 uM GlcN6P
33 | AUAAAAGCGCCAGAACUACAGAAAUGUACUUGACGAGGAGGAGGUUUAUCGAGUUUUCGGCGGAUGCAUCCAAA [G29C A53G C68A] | 0.000662 ± 0.00034 s⁻¹

Variants of: B1
Assay: self-cleavage kobs at 640 uM GlcN6P; higher = faster cleavage; RNA array
Details: with glucosamine-6-phosphate
In short: as §1

Row | Variant | self-cleavage kobs at 640 uM GlcN6P
34 | AUAAAAGCGCCAGAAGUACAGAAAUGUAGUUGACGAGGAGGAGGUUUAUAGAAUUUUCGGCGGAUGCCUACAAA [C16G C50A C70A] | 4.24e-05 ± 2.7e-05 s⁻¹

Variants of: B1
Assay: self-cleavage kobs at 40 uM GlcN6P; higher = faster cleavage; RNA array
Details: with glucosamine-6-phosphate
In short: as §1

Row | Variant | self-cleavage kobs at 40 uM GlcN6P
35 | AUAAAAGCGCCAGAACUACAUAAAUGUAGUUGACGAGGAGGAGGCUUAUCGAAUUUUCGGCGGAUGCUUCCAAA [G21U U45C C68U] | 1.68e-05 ± 1.6e-05 s⁻¹

Variants of: B1
Assay: self-cleavage kobs at 10000 uM GlcN6P; higher = faster cleavage; RNA array
Details: with glucosamine-6-phosphate
In short: as §1

Row | Variant | self-cleavage kobs at 10000 uM GlcN6P
36 | AUAAAAGCGCCAGAACUACAGAAAUGUAAUUGACGAGGAGGAGGUUUAUCGAACUUUCGGCGGAUGCCUCCAAA [G29A U54C] | 0.00636 ± 0.0034 s⁻¹
